This passage reports binding results from patent US20050112694A1.

Sequences of proteins named here, by UniProt entry; tags and fusion partners are left off. A change or cut given only in a name is not applied to a line headed by its entry.
UniProt P24394: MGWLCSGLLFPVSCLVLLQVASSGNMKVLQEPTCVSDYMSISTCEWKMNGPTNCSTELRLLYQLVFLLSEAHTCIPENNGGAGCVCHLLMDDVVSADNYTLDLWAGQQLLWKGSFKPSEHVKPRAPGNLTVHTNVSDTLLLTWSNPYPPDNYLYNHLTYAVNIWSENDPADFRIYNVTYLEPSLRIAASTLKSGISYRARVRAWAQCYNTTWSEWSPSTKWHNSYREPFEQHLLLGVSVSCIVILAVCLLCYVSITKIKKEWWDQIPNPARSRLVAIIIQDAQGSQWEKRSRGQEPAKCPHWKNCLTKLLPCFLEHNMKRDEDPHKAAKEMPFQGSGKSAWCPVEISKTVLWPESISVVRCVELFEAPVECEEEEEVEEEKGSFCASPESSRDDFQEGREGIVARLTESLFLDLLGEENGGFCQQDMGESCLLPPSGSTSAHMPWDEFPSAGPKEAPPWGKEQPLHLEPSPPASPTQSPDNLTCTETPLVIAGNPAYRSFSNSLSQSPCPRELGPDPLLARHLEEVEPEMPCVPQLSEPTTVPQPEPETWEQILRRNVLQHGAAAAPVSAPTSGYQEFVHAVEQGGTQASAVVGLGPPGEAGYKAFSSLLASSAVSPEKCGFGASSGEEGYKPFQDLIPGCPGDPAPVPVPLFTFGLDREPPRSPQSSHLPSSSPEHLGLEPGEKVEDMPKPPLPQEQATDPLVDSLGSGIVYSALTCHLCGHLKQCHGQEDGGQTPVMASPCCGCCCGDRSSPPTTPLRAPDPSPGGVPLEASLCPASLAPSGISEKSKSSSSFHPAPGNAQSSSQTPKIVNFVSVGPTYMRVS

These are yes or no findings as the source states them, for the method shown. Some results given as binding are weak or reduced against the parent protein; the word gives no strength.

In assay [1] the target is human IL-4 receptor alpha (human) (UniProt P24394). In words: biochemical binding assay and/or the method of Example 2 (CD23 on human B cells).
Assay [2] has the same target. In words: screen of a human light chain variable region library paired with H1.

B1: L3H1 (antibody, V domains shown)
VH: EVQLVQSGGGLVHPGGSLRLSCAGSGFTFSRNAMFWVRQAPGKGLEWVSGIGTGGATNYADSVKGRFTISRDNAKNSLYLQMNSLRAEDMAVYYCARGRYYFDYWGQGTLVTVSS
VL: EIVLTQSPGTLSLSPGERATLSCRASQTVNSDYLAWYQQKPGQAPRLLIYGASSRATGIPDRFSGSGSGTDFTLTISRLEPEDFAVYYCQQYGRSPPWTFGQGTKVDIK
Take B1: the binding result in assay [1] and in assay [2] was “binds” in each case.

B2: L5H1 (antibody, V domains shown)
VH: EVQLVQSGGGLVHPGGSLRLSCAGSGFTFSRNAMFWVRQAPGKGLEWVSGIGTGGATNYADSVKGRFTISRDNAKNSLYLQMNSLRAEDMAVYYCARGRYYFDYWGQGTLVTVSS
VL: DIVLTQSPATLSLSPGERATLSCRASQSVNSNYLAWYQQKPGQAPRLLIYGTSYRATGIPDRFSGSGSGTDFTLTITRLEPEDFAVYYCQQYGSSPPWTFGQGTRLEIK
With B2, the binding result in assay [1] and in assay [2] was “binds” in each case.

B3: L4H1 (antibody, V domains shown)
VH: EVQLVQSGGGLVHPGGSLRLSCAGSGFTFSRNAMFWVRQAPGKGLEWVSGIGTGGATNYADSVKGRFTISRDNAKNSLYLQMNSLRAEDMAVYYCARGRYYFDYWGQGTLVTVSS
VL: EIVMTQSPGTLSLSPGERATLSCRASQSVSSDYLAWYQQKPGQAPRLLIYGASSRASGIPDRFSGSGFGTDFTLTISRLEPEDFAIYYCQQYGSSPPWTFGQGTKVEIK
On to B3, for which the binding result in assay [1] and in assay [2] was “binds” throughout.

B4: L6H1 (antibody, V domains shown)
VH: EVQLVQSGGGLVHPGGSLRLSCAGSGFTFSRNAMFWVRQAPGKGLEWVSGIGTGGATNYADSVKGRFTISRDNAKNSLYLQMNSLRAEDMAVYYCARGRYYFDYWGQGTLVTVSS
VL: DIVLTQTPATLSLSPGERATLSCRASQSVGSSYLAWYQQRPGQAPRLLIYGASSRATGIPDRFSGSGSGTDFTLTISRLEPEDFAVYYCQQYGSSPPWMFGQGTKVEIK
B4: the binding result in assay [1] and in assay [2] was “binds” each time.
